From patent US20260193376A1
No constants are given. Whether binding was seen depends on the method and setting. Binding can be weak; no strength is given.

Experiments:
[1] = molecular target: human EGR-CK-inhibited Factor IXa Gla-domainless (wild-type) (human); test: co-crystallization, 1:1 molar ratio
[2] = molecular target: human EGR-CK-inhibited Factor IXa Gla-domainless (wild-type) (human); test: size exclusion chromatography of the 1:1 complex and co-crystallization

B1: Fab fragment corresponding to mAb01-9994 (Fab, V domains shown)
VH: EVQLVESGGGLVQPGRSLRLSCAASGFTFHDYAMHWVRQVPGKGLEWVSGISWKGDIGGYVDSVKGRFTISRDNEKNSLYLQMNSLRAEDTALYYCVKSYGSGSFYNAFDSWGQGTLVTVSS
VL: DIQMTQSPSTLSASVGDRVTITCRASQSISSWLAWYQQKPGKAPKFLIYKASRLDRGTPSRFSGSGSGTEFSLTISSLQPDDFATYYCLEYSSYIRTFGQGTKVEIK
binding [1]: binds

B2: Fab fragment corresponding to mAb01-9933 (Fab, V domains shown)
VH: EVQLVESGGGLVQPGRSLKLSCAASGFTFDDYAMHWVRQVPGKGLEWVSGISWKGDIGGYVDSVKGRFTISRDNAKNSLYLQLNSLRAEDTALYYCAKSYGSGSFYNAFDSWGQGTLVTVSS
VL: DIQMTQSPSTLSASAGDEVTITCRASQSISSWLAWYQQKPGKAPKLLIYKASKLDRGVPSRFSGSGSGTEFSLTISDLQPDDFATYYCLEYSSYIRTFGQGTKVEIK
binding [1]: binds

B3: Fab fragment corresponding to mAb01-9985 (Fab, V domains shown)
VH: EVQLVESGGGLVQPGRSLRLSCAASGFTFHDYAMHWVRQVPGKGLEWVSGISWRGDIGGYVKSVKGRFTISRDNAKNSLYLQMNSLRAEDTALYYCVKSYGSGSFYNAFDSWGQGTLVTVSS
VL: DIQMTQSPSTLSASVGDRVTITCRASQSISSWLAWYQQKPGKAPKFLIYKASKLERGTPSRFSGSGSGTEFSLTISSLQPDDFATYYCLEYSSYIRTFGQGTKVEIK
binding [2]: binds
